{
  "source": "patent US20210177881A1",
  "about": "“MEDICAMENT FOR PREVENTING AND/OR TREATING PAIN AND/OR FEVER, COMPOSITE PRODUCT AND USE THEREOF” (SHANGHAI TONGLIAN PHARMACEUTICAL CO., LTD., priority 2018, published 2021)",
  "test_system": "rats with tibial cancer pain",
  "assay": "van Frey mechanical pain threshold in rats with tibial cancer pain (Walker256)",
  "format": "in vivo, rat",
  "details": "80 mg/kg intragastric, 12 days",
  "description": "Walker rat breast cancer cells were purchased from Shanghai Institute of Biomedical Engineering. The abdominal cavity of female Wistar rats of 70-80 g was inoculated with 1 ml of ascites tumor (about 2×10^7 cells /ml). After 7-10 days, 5 ml of ascites was extracted and centrifuged for 3 minutes (1300 rpm). After precipitation, washing was performed with 10 ml PBS, and then centrifuged and precipitated again. Then, resuspending was performed with PBS, counting was performed, the cell concentration was adjusted to 1×10^7 cells/ml by PBS and placed in an ice box for later use.\nRats were anesthetized by intraperitoneal injection of 10% chlorate hydrate (4 ml/kg body weight), a skin was prepared at the right knee joint, and the skin was disinfected with 75% alcohol. The knee joint was fixed with the left hand to make the skin on its surface tense. […]\nRats were divided into two groups: a PBS injection control group and a Walker256 model group. The radiation paw withdrawal latency (PWL) was measured before modeling as the basic pain threshold, and the PWL was measured every other day after modeling as the thermal hyperalgesia threshold. At the same time, the mechanical pain caused by von Frey filament was measured. The threshold of mechanical pain was measured before modeling as the basic pain threshold, and the threshold of mechanical allodynia was measured every other day after modeling. […]",
  "data": [
    {"smiles": "CN1CC[C@]23c4c5ccc(O)c4O[C@H]2[C@@H](O)C=C[C@H]3[C@H]1C5.Cl", "note": "[positive control, morphine hydrochloride]", "values": [
      {"measurement": "analgesic rate, same side", "result": 188.9, "unit": "%"}
    ]}
  ]
}
